In PMC11243334 (Molecules, 2024):

Assay: general procedure: Fmoc solid-phase peptide synthesis; Fmoc-hydroxylamine-2-Cl-Trt resin; HATU/HOAt/DIEA
Conditions: whole synthesis

Question: For D-Phe-Gln-Trp-Ala-Val-Gly-His-Leu-NHOH, which “final HPLC purity” value (analytical HPLC (Luna C18, 250 × 4.6 mm), UV 220 nm, scale of the general procedure 0.1 mmol) is on record?
Answer: Its value is greater than 99%.

Question: What about the isolated yield (scale 0.1 mmol) of the same substance?
Answer: The isolated yield was 3.4%.
